According to patent publication US20240156870A1 (NATIONAL RESEARCH COUNCIL OF CANADA, published 2024):
These are yes or no findings as the source states them, for the method shown. Some results given as binding are weak or reduced against the parent protein; the word gives no strength.

What was measured:
[1] = molecular target: T1, human EGFR-Fc fusion protein (human, UniProt P00533 25-645); test: sandwich ELISA: streptavidin-captured biotinylated VHH, human EGFR-Fc 500 ng/ml in solution, anti-human IgG-HRP [panel C]
T1 construct: Bought; not shown: Fc part of the bought fusion

[2] = molecular target: T2, human EGFR, native, on the cell surface (human, UniProt P00533 25-1210); test: flow cytometry on EGFR-positive MDA-MB-468 cells, VHH monomer 20 µg/ml, anti-c-Myc and labelled anti-mouse antibodies
T2 construct: MCF7 is EGFR-low and serves as low-expression control; also called native cell-surface EGFR

[3] = molecular target: T3, mouse EGFR-Fc fusion protein (mouse, UniProt Q01279 25-647); test: ELISA, VHH titrated from about 0.5 to 1000 ng/mL, OD 450 nm
T3 construct: Bought; not shown: Fc part of the bought fusion

[4] = molecular target: rhesus EGFR-Fc fusion protein (rhesus) (UniProt P55245); test: as above
[5] = molecular target: T1, human EGFR-Fc fusion protein; test: as above
[6] = molecular target: T3, mouse EGFR-Fc fusion protein; test: SPR and ELISA on EGFR-Fc of three species
[7] = molecular target: rhesus EGFR-Fc fusion protein (rhesus) (UniProt P55245); test: SPR and ELISA on EGFR-Fc of three species
[8] = molecular target: T1, human EGFR-Fc fusion protein; test: SPR and ELISA on EGFR-Fc of three species
[9] = molecular target: T2, human EGFR, native, on the cell surface; test: cytometry on EGFR-positive tumor cells
[10] = molecular target: T1, human EGFR-Fc fusion protein; test: SPR, single-cycle kinetics (Biacore T200): VHH monomer, rising concentrations within 0.6-50 nM, over amine-coupled human EGFR-Fc [panel A]

Measured: binding

B1: NRC-sdAb033 (VHH)
VHH: QVQLVESGGGLVQPGGSLRLSCAASESIDSIYVMQWYRQAPEKPRDVVATLTPGGGSYYPEAVLGRFTISRDDAKNTVYLQMNSLKPEDTAVYYCNAFHRLRGTHYWGQGTQVTVSS
notes: Monomeric llama VHH; in ELISA a version with biotin acceptor peptide and 6xHis was used; also called EVE48; not shown: C-terminal c-Myc and 6xHis tags
binds: all assays above
